The values below come from PMC5996148.

Among the test systems are TTC1 (human); TTC32 (human); TTC8 (human); TTR (human); TTYH2 (human); TUBA1C (human); TUBA3E (human); TUBB (human); TWSG1 (human).
Assay in all cases: protein microarray (ProtoArray v5.0), streptavidin-Alexa Fluor 647
What all share (conditions): 3'-biotin; 20 mM Tris (pH 7.5), 5 mM MgCl2, 100 mM KCl, 0.1% Tween-20, A/T-rich and random oligonucleotide blockers; temperature not stated; high values mean tight binding

Another assay concerns the target T1, TUBE1 (UniProt Q9UJT0).
T1 sequence: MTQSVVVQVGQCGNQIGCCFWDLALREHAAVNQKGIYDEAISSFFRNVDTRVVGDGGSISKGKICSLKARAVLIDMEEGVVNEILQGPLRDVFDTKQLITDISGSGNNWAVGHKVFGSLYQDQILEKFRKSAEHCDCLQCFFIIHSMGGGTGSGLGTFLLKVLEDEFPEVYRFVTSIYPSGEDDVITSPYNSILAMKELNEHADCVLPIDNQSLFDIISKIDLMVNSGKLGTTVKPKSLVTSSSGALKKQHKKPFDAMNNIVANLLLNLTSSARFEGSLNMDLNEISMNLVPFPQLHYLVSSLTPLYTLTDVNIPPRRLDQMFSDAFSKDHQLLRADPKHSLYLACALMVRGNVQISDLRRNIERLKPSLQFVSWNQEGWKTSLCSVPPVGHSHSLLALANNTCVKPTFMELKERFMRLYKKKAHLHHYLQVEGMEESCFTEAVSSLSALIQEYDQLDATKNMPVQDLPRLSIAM

The list shows a part of the results. For some of these results: The source does not settle which construct or isoform was used.

For “GGGAGGCTGAGGCAGG [G4-1 biotinylated (PQS2)]”, the binding signal was -0.354 z-score in the assay with TTC1 (human); -0.333 z-score in the assay on TTC32 (human); -0.323 z-score with TTC8 (human); -0.308 z-score in the assay on TTR (human); -0.294 z-score in the assay on TTYH2 (human); -0.33 z-score with TUBA1C (human). The binding signal in the assay with TUBA3E (human) was -0.339 z-score; in the assay on TUBB (human), -0.341 z-score; with TUBE1 it was -0.341 z-score; in the assay with TWSG1 (human), -0.259 z-score.
